According to PMC8822852:
No constants are given. Whether binding was seen depends on the method and setting. In cells and extracts the contact can be indirect. Some entries that bind do so weakly or less than the wild type.

Amino acid sequences for entries named in this document (tags omitted).
UniProt P06748: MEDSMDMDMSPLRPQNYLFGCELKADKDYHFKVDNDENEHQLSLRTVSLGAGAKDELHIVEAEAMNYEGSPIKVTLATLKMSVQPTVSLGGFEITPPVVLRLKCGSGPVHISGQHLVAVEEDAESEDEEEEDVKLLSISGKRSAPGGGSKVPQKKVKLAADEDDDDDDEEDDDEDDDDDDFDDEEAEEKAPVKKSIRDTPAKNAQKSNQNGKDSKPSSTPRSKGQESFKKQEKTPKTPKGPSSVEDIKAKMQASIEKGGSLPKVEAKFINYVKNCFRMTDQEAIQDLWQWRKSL

Tests used:
[1] = target: T1, Protein tyrosine phosphatase non-receptor type 14 (PTPN14) (human (endogenous in HepG2)) (UniProt Q15678); test: co-IP; total lysate of HepG2 cells without hypoxia (0 h); precipitated with PTPN14 antibody overnight, protein-G or protein-A sepharose, washed five times in PBS; blotted for NPM1 and PTPN14
T1 sequence: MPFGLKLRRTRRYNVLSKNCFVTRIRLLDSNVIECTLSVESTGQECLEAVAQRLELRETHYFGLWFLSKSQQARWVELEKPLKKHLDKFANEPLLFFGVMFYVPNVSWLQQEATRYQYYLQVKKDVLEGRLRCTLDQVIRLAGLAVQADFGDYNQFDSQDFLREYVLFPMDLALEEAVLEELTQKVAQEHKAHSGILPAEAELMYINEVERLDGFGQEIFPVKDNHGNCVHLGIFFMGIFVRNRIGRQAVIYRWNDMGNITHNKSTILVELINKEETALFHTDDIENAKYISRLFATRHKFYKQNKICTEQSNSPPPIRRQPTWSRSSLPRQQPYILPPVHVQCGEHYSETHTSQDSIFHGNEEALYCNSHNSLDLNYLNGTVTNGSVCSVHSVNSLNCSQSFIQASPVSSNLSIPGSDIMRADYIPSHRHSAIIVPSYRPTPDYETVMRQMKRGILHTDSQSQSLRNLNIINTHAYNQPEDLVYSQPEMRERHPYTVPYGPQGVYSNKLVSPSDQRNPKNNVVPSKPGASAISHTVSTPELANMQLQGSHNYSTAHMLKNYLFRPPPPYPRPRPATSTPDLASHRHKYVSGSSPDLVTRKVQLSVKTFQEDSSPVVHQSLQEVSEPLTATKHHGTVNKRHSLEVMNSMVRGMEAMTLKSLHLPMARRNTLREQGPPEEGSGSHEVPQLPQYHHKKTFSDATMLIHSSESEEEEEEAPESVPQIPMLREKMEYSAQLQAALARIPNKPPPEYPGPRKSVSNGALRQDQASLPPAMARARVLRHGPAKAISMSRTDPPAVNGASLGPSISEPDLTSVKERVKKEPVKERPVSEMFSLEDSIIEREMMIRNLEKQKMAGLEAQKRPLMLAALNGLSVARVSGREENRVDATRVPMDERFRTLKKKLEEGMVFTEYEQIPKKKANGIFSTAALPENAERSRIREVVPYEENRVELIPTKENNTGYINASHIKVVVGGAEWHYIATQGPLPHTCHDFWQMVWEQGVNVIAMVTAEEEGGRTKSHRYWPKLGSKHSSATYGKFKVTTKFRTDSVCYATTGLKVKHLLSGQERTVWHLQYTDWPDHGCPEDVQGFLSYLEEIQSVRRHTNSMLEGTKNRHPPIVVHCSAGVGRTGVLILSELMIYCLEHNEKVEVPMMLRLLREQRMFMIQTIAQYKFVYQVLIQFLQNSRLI

[2] = target: T1, Protein tyrosine phosphatase non-receptor type 14 (PTPN14) (human (endogenous in HepG2)); test: co-IP; total lysate of HepG2 cells after hypoxia (2% O2) for 24 h; precipitated with PTPN14 antibody overnight, protein-G or protein-A sepharose, washed five times in PBS; blotted for NPM1 and PTPN14

binding [2]: binds
Substance: Nucleophosmin (NPM1/B23) (from UniProt P06748 1-294)
binding [1]: no binding (condition: without hypoxia (0 h))
